Data from publication PMC3029307.
These are yes or no findings as the source states them, for the method shown. Some results given as binding are weak or reduced against the parent protein; the word gives no strength.

Columns and labels:
Details in all cases: remark: other sources report otherwise
[1] = molecular target: T1, Apaf-1 (endogenous, GM701 cytosol) (human (endogenous in GM701)), O14727; assay: SEC; data not shown: gel filtration of cytosols stored at 4°C, with CC or CC/dATP
T1 chain: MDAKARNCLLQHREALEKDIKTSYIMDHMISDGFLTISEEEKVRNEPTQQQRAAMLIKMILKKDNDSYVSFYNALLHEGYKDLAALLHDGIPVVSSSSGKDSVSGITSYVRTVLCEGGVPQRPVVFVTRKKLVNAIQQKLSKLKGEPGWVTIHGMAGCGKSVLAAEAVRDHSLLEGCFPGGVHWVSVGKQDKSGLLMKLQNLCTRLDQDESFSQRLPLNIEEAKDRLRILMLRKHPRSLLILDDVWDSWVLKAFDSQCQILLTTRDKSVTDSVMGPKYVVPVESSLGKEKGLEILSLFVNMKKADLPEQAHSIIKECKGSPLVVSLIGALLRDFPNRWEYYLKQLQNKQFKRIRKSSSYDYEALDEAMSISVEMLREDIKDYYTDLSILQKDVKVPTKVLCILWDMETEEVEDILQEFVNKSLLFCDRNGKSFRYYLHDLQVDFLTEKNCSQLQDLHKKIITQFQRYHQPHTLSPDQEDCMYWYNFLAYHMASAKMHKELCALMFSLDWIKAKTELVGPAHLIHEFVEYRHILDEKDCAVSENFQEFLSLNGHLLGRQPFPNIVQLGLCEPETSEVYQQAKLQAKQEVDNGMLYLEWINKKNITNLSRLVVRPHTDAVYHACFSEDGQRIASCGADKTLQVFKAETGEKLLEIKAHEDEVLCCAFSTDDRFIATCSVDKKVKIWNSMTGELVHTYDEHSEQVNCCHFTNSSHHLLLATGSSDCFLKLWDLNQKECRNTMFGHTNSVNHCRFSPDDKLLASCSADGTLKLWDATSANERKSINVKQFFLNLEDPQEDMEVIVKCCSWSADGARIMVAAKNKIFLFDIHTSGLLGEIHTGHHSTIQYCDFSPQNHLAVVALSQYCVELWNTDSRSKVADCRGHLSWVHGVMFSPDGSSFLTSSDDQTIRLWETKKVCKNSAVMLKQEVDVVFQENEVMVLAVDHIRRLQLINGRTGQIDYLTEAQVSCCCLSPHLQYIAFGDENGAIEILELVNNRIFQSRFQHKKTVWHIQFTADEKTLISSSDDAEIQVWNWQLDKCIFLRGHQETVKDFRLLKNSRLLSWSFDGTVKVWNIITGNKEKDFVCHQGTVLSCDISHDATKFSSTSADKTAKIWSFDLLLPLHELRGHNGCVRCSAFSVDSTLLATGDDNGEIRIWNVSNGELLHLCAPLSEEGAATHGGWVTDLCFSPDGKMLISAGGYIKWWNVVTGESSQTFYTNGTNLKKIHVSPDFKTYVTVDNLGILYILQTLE

[2] = molecular target: T1, Apaf-1 (endogenous, GM701 cytosol) …; assay: SEC; data not shown: gel filtration of cytosols stored at -80°C for 3 months, with CC with or without dATP
[3] = molecular target: T1, Apaf-1 (endogenous, GM701 cytosol) …; assay: SEC; GM701 cytosol stored at -20°C for 15 days, incubated with CC with or without dATP, fractionated on Superose 6; fractions analysed by Western blotting
[4] = molecular target: T1, Apaf-1 (endogenous, GM701 cytosol) …; assay: SEC; fresh GM701 cytosol incubated with bovine CC, fractionated on Superose 6 (20 mM HEPES, 0.1% CHAPS, 5 mM DTT, 5% sucrose pH 7.0, 50 mM NaCl); fractions analysed by Western blotting

binding [1]: binds
binding [2]: binds
binding [3]: binds
binding [4]: binds
B1: Apaf-1 (endogenous, GM701 cytosol), O14727 1-1248 (protein)
chain: MDAKARNCLLQHREALEKDIKTSYIMDHMISDGFLTISEEEKVRNEPTQQQRAAMLIKMILKKDNDSYVSFYNALLHEGYKDLAALLHDGIPVVSSSSGKDSVSGITSYVRTVLCEGGVPQRPVVFVTRKKLVNAIQQKLSKLKGEPGWVTIHGMAGCGKSVLAAEAVRDHSLLEGCFPGGVHWVSVGKQDKSGLLMKLQNLCTRLDQDESFSQRLPLNIEEAKDRLRILMLRKHPRSLLILDDVWDSWVLKAFDSQCQILLTTRDKSVTDSVMGPKYVVPVESSLGKEKGLEILSLFVNMKKADLPEQAHSIIKECKGSPLVVSLIGALLRDFPNRWEYYLKQLQNKQFKRIRKSSSYDYEALDEAMSISVEMLREDIKDYYTDLSILQKDVKVPTKVLCILWDMETEEVEDILQEFVNKSLLFCDRNGKSFRYYLHDLQVDFLTEKNCSQLQDLHKKIITQFQRYHQPHTLSPDQEDCMYWYNFLAYHMASAKMHKELCALMFSLDWIKAKTELVGPAHLIHEFVEYRHILDEKDCAVSENFQEFLSLNGHLLGRQPFPNIVQLGLCEPETSEVYQQAKLQAKQEVDNGMLYLEWINKKNITNLSRLVVRPHTDAVYHACFSEDGQRIASCGADKTLQVFKAETGEKLLEIKAHEDEVLCCAFSTDDRFIATCSVDKKVKIWNSMTGELVHTYDEHSEQVNCCHFTNSSHHLLLATGSSDCFLKLWDLNQKECRNTMFGHTNSVNHCRFSPDDKLLASCSADGTLKLWDATSANERKSINVKQFFLNLEDPQEDMEVIVKCCSWSADGARIMVAAKNKIFLFDIHTSGLLGEIHTGHHSTIQYCDFSPQNHLAVVALSQYCVELWNTDSRSKVADCRGHLSWVHGVMFSPDGSSFLTSSDDQTIRLWETKKVCKNSAVMLKQEVDVVFQENEVMVLAVDHIRRLQLINGRTGQIDYLTEAQVSCCCLSPHLQYIAFGDENGAIEILELVNNRIFQSRFQHKKTVWHIQFTADEKTLISSSDDAEIQVWNWQLDKCIFLRGHQETVKDFRLLKNSRLLSWSFDGTVKVWNIITGNKEKDFVCHQGTVLSCDISHDATKFSSTSADKTAKIWSFDLLLPLHELRGHNGCVRCSAFSVDSTLLATGDDNGEIRIWNVSNGELLHLCAPLSEEGAATHGGWVTDLCFSPDGKMLISAGGYIKWWNVVTGESSQTFYTNGTNLKKIHVSPDFKTYVTVDNLGILYILQTLE
